Values from PubChem BioAssay AID1224830 (NIAID, 2016).
The deposit covers about 18,000 reagents; shown is an unselected part. About 2,900 of them (16%) count as active. 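Calls are made per well; low scores hint the gene aids the LPS response, high scores that it dampens it.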 Entries without a mark were called inactive. Repeated entries: four replicate wells of each siRNA pool.

Aim: 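Genes whose knock-down alters the TNF-alpha reporter response to LPS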 (primary screen)
Cell system: human THP-1 monocytic leukaemia cells, TNF dual-luciferase reporter clone, PMA-differentiated to macrophage-like cells
Reagent: siRNA pool against human genes, 50 nM
Duration: LPS for 4 h, given about 3 days after siRNA transfection
Treatment: bacterial LPS (TLR4 ligand), 10 ng/ml
Measured: 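Ratio of firefly to renilla light, scaled to the plate median and expressed as a robust z-score per replicate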
Reading the numbers: TNF reporter robust z-score: higher = stronger TNF reporter response to LPS
Hit rule: 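a well is active when its z-score exceeds 2.8 or falls below -1.5; control wells carry no call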

Against CA13 the deposit lists TNF reporter robust z-score 2.75.
CA13 showed TNF reporter robust z-score -0.2.
For CA13, the values are TNF reporter robust z-score 0.03.
Silencing of CA13 gave: TNF reporter robust z-score -0.17.
EIF2AK4 showed TNF reporter robust z-score 2.35.
Against EIF2AK4 the deposit lists TNF reporter robust z-score -1.04.
Depletion of EIF2AK4 gave: TNF reporter robust z-score -0.66.
For EIF2AK4 the deposit lists TNF reporter robust z-score 0.14.
HNRNPF scored TNF reporter robust z-score 1.22.
With knock-down of HNRNPF the results were TNF reporter robust z-score 0.58.
With knock-down of HNRNPF, the record shows TNF reporter robust z-score -0.76.
Knock-down of HNRNPF gave: TNF reporter robust z-score 2.06.
Knock-down of SUDS3 resulted in: TNF reporter robust z-score 0.28.
Silencing of SUDS3 came out at: TNF reporter robust z-score -0.55.
SUDS3 gave TNF reporter robust z-score 0.79.
Silencing of SUDS3 came out at: TNF reporter robust z-score 1.12.
Depletion of DDAH2 resulted in: TNF reporter robust z-score -2.06 (active).
Silencing of DDAH2 came out at: TNF reporter robust z-score -1.56 (active).
DDAH2 scored TNF reporter robust z-score -1.21.
DDAH2 showed TNF reporter robust z-score -1.23.
Silencing of HLA-L came out at: TNF reporter robust z-score -0.09.
Depletion of HLA-L resulted in: TNF reporter robust z-score -0.56.
With knock-down of HLA-L, the screen gave TNF reporter robust z-score 0.35.
HLA-L showed TNF reporter robust z-score -0.34.
GRTP1 showed TNF reporter robust z-score 0.68.
After knock-down of GRTP1 the results were TNF reporter robust z-score 1.
Knock-down of GRTP1 came out at: TNF reporter robust z-score 0.54.
With knock-down of GRTP1, the record shows TNF reporter robust z-score -1.55 (active).
For KLC3 the deposit lists TNF reporter robust z-score -0.35.
Against KLC3, the values are TNF reporter robust z-score -0.1.
Depletion of KLC3 resulted in: TNF reporter robust z-score 0.17.
Depletion of KLC3 gave: TNF reporter robust z-score -0.79.
Depletion of TECRL gave: TNF reporter robust z-score -0.87.
Against TECRL the deposit lists TNF reporter robust z-score 0.27.
With knock-down of TECRL the results were TNF reporter robust z-score 0.39.
TECRL gave TNF reporter robust z-score 1.31.
After knock-down of NACA2, the screen gave TNF reporter robust z-score 1.85.
After knock-down of NACA2 the results were TNF reporter robust z-score 0.3.
With knock-down of NACA2, the screen gave TNF reporter robust z-score -0.31.
NACA2 scored TNF reporter robust z-score -0.53.
ACSL1 scored TNF reporter robust z-score -0.5.
Against ACSL1, the values are TNF reporter robust z-score 4.38 (active).
ACSL1 scored TNF reporter robust z-score 0.38.
Depletion of ACSL1 came out at: TNF reporter robust z-score 0.77.
For TRIM32 the deposit lists TNF reporter robust z-score -0.7.
With knock-down of TRIM32 the results were TNF reporter robust z-score 0.
Silencing of TRIM32 came out at: TNF reporter robust z-score -0.53.
TRIM32 scored TNF reporter robust z-score 0.86.
Knock-down of CENPC resulted in: TNF reporter robust z-score 3.36 (active).
For CENPC, the values are TNF reporter robust z-score -0.37.
Knock-down of CENPC gave: TNF reporter robust z-score 2.27.
CENPC gave TNF reporter robust z-score 1.19.
After knock-down of CNOT10 the results were TNF reporter robust z-score -0.17.
CNOT10 showed TNF reporter robust z-score 0.83.
After knock-down of CNOT10, the record shows TNF reporter robust z-score -0.73.
After knock-down of CNOT10, the screen gave TNF reporter robust z-score 1.02.
DTX3 scored TNF reporter robust z-score -0.55.
Against DTX3, the entry reads TNF reporter robust z-score -0.29.
With knock-down of DTX3, the record shows TNF reporter robust z-score 3.32 (active).
Against DTX3 the deposit lists TNF reporter robust z-score 0.26.

8 consecutive records already listed, quoted:
CENPC → TNF reporter robust z-score = 3.36 (active)
CENPC → TNF reporter robust z-score = -0.37
CENPC → TNF reporter robust z-score = 2.27
CENPC → TNF reporter robust z-score = 1.19
CNOT10 → TNF reporter robust z-score = -0.17
CNOT10 → TNF reporter robust z-score = 0.83
CNOT10 → TNF reporter robust z-score = -0.73
CNOT10 → TNF reporter robust z-score = 1.02
